From PubChem BioAssay AID1347423 (Functional Genomics Laboratory (NCATS/FGL), 2020)
Hit rate of the full screen: of about 52,000 sequences, about 210 (0.4%) were called active.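 Rule for the calls: active = gene whose silencing raises cell survival under the drug, median off-target-corrected z-score across its silencing RNAs 2 or more; inactive = the rest.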 Some of the results follow.

assay: Resistance to Poly (ADP-Ribose) Polymerase inhibitor: Gene Identification via Genome-wide siRNA Screen; settings: mouse BRCA2 R2336H ES cells, olaparib, CellTiter-Glo viability; stronger effect = higher value
In short: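 Mouse BRCA2 R2336H ES cells were reverse-transfected with siRNA (20 nM final), treated at 48 h with 500 nM olaparib, and read by CellTiter-Glo after 72 h. Scores: MAD-based z per siRNA, median per gene, seed off-target correction.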

| Sequence | z-score |
| --- | --- |
| CCUUGGUGGCCCAUUUAGCTT against 9830107B12 | inactive: 0.43 |
| CCAAUUAUCCCGGGACCUATT against 1700030B21Rik | inactive: -2.04 |
| GGAGAAGUUUGGGAAGAAATT against Gys2 | inactive: 1.63 |
| GGGAAAGACUGGAAAUCUUTT against Tmod3 | inactive: 2.14 |
| CCGGACCAUCUUCGACAGUTT against Tmepai | inactive: -1.07 |
| CCGAUGGGAAAAUCCAGUUTT against AB114826 | inactive: -3.09 |
| GGAGCUGCUCCAGUUGAUATT against Col11a1 | inactive: 0.826 |
| GCUGAAAUGGAGUAUUUGATT against Nf2 | inactive: 0.552 |
| GCGAUCUACGCUUUCAAAGTT against B930096L08Rik | inactive: -0.0873 |
| GCUCCACAAGAUGUAAAGGTT against Il21 | inactive: -1.83 |
| GCACCUACGUUUGUUGGAUTT against Clasp2 | inactive: -1.32 |
| CCAGAAAUAAAAGACAUCGTT against BC038311 | inactive: 0.368 |
| GGGAUAUCCUACCAGGUCATT against Ppard | inactive: -0.314 |
| GCAUUCAGUUGGGACAGUATT against Hsh2d | inactive: -1.15 |
| GCGCAGGUUGGAUGAAUGUTT against Psme3 | inactive: -1.28 |
| CGACCUGCUCUCAUAGCUUTT against Sycn | inactive: -0.71 |
| GGAGGAAGAAACAAAAAAATT against Nolc1 | inactive: 0.664 |
| GUUUCAUGAGUGCCUCCAUTT against Olfr1446 | inactive: 0.962 |
| CAAGAAAAUGCUCUCUGUUTT against Gm1553 | inactive: -0.944 |
| GCAAUGUGCACGAUGAUGATT against Pik3cg | inactive: -2.47 |
| GGCUGAUGAUACUUAAACATT against V1rg8 | inactive: -2.45 |
| GCUUCCACAUAUUUUUUGCTT against Olfr1467 | inactive: -0.557 |
| GGCAGCUAAACUGUGUUAUTT against Tex11 | inactive: -0.798 |
| GGAGAGUGUAUCCUAUCUGTT against Snapc3 | inactive: -1.32 |
| CCCUGGUAUCUUACAUCGATT against Zdhhc19 | inactive: -0.157 |
| GGCAAAACAAAAACUCUACTT against 1700028P14Rik | inactive: -0.601 |

Looked up above:
CGACCUGCUCUCAUAGCUUTT against Sycn | z-score: inactive: -0.71
GCUGAAAUGGAGUAUUUGATT against Nf2 | z-score: inactive: 0.552

The list goes on:

| Sequence | z-score |
| --- | --- |
| GGAAAUGCCACCAUUGUUATT against Olfr514 | inactive: 0.0719 |
| CCCUAACAUUGAGAUGAUUTT against Peg10 | inactive: 1.74 |
| GGCCCAGUCUUCUCAAAAATT against Lass2 | inactive: -0.22 |
| GGAUGAAGACAGUCAAAUGTT against 2310061G07Rik | inactive: -0.65 |
| GGAUGAAGCGAAUCACAACTT against Atp1b4 | inactive: -0.734 |
| GGGAGCUACGUUCAGAAGUTT against Gckr | inactive: -0.157 |
| GGAGGAAACACGUCUGAAUTT against Slc4a9 | inactive: 0.554 |
| GGCAGCUAGAGAGAAUCCUTT against Akr1c12 | inactive: -0.435 |
| GGAUGACAUGAAAAUGGAATT against 1190005P17Rik | inactive: 0.183 |
| GGCUUUACCGGAUCUUUUGTT against Krtap15 | inactive: 0.313 |
| GGUUAUGAUCGGCAUCGCUTT against 1700063I17Rik | inactive: -0.431 |
| GCAGAUCGUGCGGAUCUUGTT against 4930556P03Rik | inactive: -0.365 |
| GCUGCCCUUCGAUUUCUGUTT against Olfr550 | inactive: 0.744 |
| GGCUCUAGGUACUUGUGGUTT against Olfr617 | inactive: 0.46 |
| CAAAUUAUGAGUGAGAACCTT against Olfr340 | inactive: -1.17 |
| CCAAGUUUGUUUCAGACGGTT against Btbd6 | inactive: 0.327 |
| GGUGAACAAUACGGCUGUGTT against D730040F13Rik | inactive: -1.07 |
| GGAACUUCUGAACAUCAGCTT against Isp1 | inactive: 0.855 |
| GGAGAUUCUGAUGAAGAAGTT against Hbld2 | inactive: -0.162 |
| GGCGAUAGUGUCUAAGAAATT against 1110004E09Rik | inactive: -0.337 |
| CGUGCUCAUUUAGGUUAUATT against Zfp57 | inactive: 1.38 |
| GGUCAUCCUUUUUCAGUACTT against Lhx6 | inactive: 1.09 |
| GGCUGUUUUGUGAACCUAATT against Olfr481 | inactive: -0.634 |
| GGAAUCCUAGGUUGCAUUATT against Mycbpap | inactive: -2.29 |
| GAUGGUAGAGUCUACAUCATT against Hcst | inactive: 0.671 |
| GCAACAUGAGGUAUAUUGGTT against Sema4d | inactive: -0.211 |

6 records picked at random from the list so far:

| Sequence | z-score |
| --- | --- |
| GCAACAUGAGGUAUAUUGGTT against Sema4d | inactive: -0.211 |
| GCUGCCCUUCGAUUUCUGUTT against Olfr550 | inactive: 0.744 |
| GGCCCAGUCUUCUCAAAAATT against Lass2 | inactive: -0.22 |
| GGAAUCCUAGGUUGCAUUATT against Mycbpap | inactive: -2.29 |
| GGUUAUGAUCGGCAUCGCUTT against 1700063I17Rik | inactive: -0.431 |
| GGAAAUGCCACCAUUGUUATT against Olfr514 | inactive: 0.0719 |

Additional records:

| Sequence | z-score |
| --- | --- |
| GGAUGCAUGGCCCAACUUUTT against Olfr915 | inactive: -0.92 |
| GGACAUCUUGUGUCUGUGCTT against Reg3g | inactive: -2.1 |
| GUUGCUGUAAACCCUGCUGTT against Krtap5-4 | inactive: -0.692 |
| GGAACAUAUGCAGAAUUUATT against Bai3 | inactive: 1.87 |
| CCUGUCCUACCAAAGUCUUTT against 1810020E01Rik | inactive: -0.419 |
| CCAUUUUCGGCAAUGCGCUTT against Adra2b | inactive: -0.872 |
| GGUAUUUGAUGCUCGGGACTT against Nos3 | inactive: -1.7 |
| GCAACCAUCUGAUGAUUAATT against 4921523A10Rik | inactive: -0.45 |
| GGUUCUACGAGUAAAAAGCTT against G22p1 | inactive: 0.291 |
| GCCAUAUCAACCGUAUUGGTT against Prosapip1 | inactive: -0.808 |
| GGCUUUUAUAGCUAAGGUUTT against 2600017H08Rik | inactive: -1.21 |
| GGCAGUACUCUUCCUCACUTT against A230078I05Rik | inactive: 1.16 |
| GGUUUUCACUAUUUCAACUTT against Olfr187 | inactive: 1.32 |
| GGUGCUUGUGGGUAACAAGTT against Rab33a | inactive: -2.45 |
| GCCUCAUGGCUUAACUUUGTT against Acads | inactive: -0.416 |
| GGGAACACUGUUGUUCUUGTT against Sprr3 | inactive: -0.51 |
| GUGAUUGAUAUUGUUCGAGTT against Pip | inactive: -0.534 |
| GAAACGGCAGAUUGCUGCUTT against V2r12 | inactive: -1.21 |
| GGACACUAUAAGAAAGGAATT against Fnta | inactive: -0.871 |
| GGUUAACCUGAGAAAAAUGTT against Mkrn1 | inactive: 0.0533 |
| AAGAAUACUCAGAUCAGUUTT against Magee2 | inactive: -0.405 |
| GGUCUAGCUCUGAAACAUCTT against Pms2 | inactive: 0.304 |
| GGAAGAAAUGUCAUCACAATT against Heph | inactive: -0.477 |
| GCCUAGGGAGGUGUAGAAUTT against Marveld1 | inactive: -1.39 |
| GCCACACAUAGGAACCAGUTT against Bat5 | inactive: -0.927 |
| GGACUCUAGUUCUUCGUUUTT against Hist1h1c | inactive: -1.02 |

| Sequence | z-score |
| --- | --- |
| CGGUAAACUGGUUUUACUUTT against BC087945 | inactive: 0.245 |
| CCAAACAACCAGCUAAUAUTT against A930039G15Rik | inactive: -1.1 |
| GGAUUUCUACCAGCUCGUGTT against Pop5 | inactive: -0.036 |
| GCUCCUAAAAGAACAGUCGTT against Cog3 | inactive: -2.19 |
| GAAUUUUUCAGCUCUGUUUTT against Tas2r117 | inactive: 0.168 |
| GGCCAUCUUUGUUUAAAACTT against Ttc5 | inactive: 0.666 |
| GGACGUGUGCCAGACUAAATT against Egfl6 | inactive: -0.753 |
| GGGAAGUUAAUUGAGAUCCTT against D7Ertd156e | inactive: 1.36 |
| GGAAGAGGGCAAAAAUGGCTT against 4933405A16Rik | inactive: 1.5 |
| GCGAGUGGAACAGGAAUAUTT against BC026370 | inactive: -0.318 |
| CCAAAAAAUAGUCCGGUUGTT against LOC238829 | inactive: -0.436 |
| GGACGUAUCUUCUUUAAGATT against 1500034J20Rik | inactive: 0.214 |
| GCCUAUUGGGUCUACCUCCTT against 1700013L23Rik | inactive: 1.28 |
| CGGCGAGGAGAAGAUAAAATT against 2210415M20Rik | inactive: 0.341 |
| GGUGGUAUCGGUUUUCUACTT against Olfr1509 | inactive: -0.102 |
| GGGAUCCAUCCUCAUCUCATT against Oas1h | inactive: -0.278 |
| GGCAAGAAUCAAGGAGAGATT against Nek1 | inactive: 1.44 |
| GGAUUAUGAUCCAGAAUUCTT against Omd | inactive: -0.36 |
| GGUCUCAUAUCCUCUUUGGTT against Pex11a | inactive: -0.891 |
| GCUGAGGAGGUUGUAUCAUTT against 4833415N24Rik | inactive: 0.706 |
| GACCCUUUUCACCAAGACATT against Gpsn2 | inactive: -0.535 |
| AAACCUGUCGUAAAAGCUGTT against Mt4 | inactive: 0.509 |
| GGCACUUUGUUUAGGCAAATT against Tcstv1 | inactive: -0.527 |
| CGGUACAAAUGAUUUCUGATT against Pcolce2 | inactive: 1.79 |
| GCUAUGGGACUUAGGAAGGTT against Paqr6 | inactive: 0.702 |
| GCAGAGCAUGCCUUACUGUTT against Eif4ebp1 | inactive: -0.257 |
